Laboratory results: publication PMC12607630
Results are given in words; binding and its absence hold for the method and conditions named. A result given as binding can be weak or reduced; the word gives no strength. Sequences can lack the tags named with a protein. One block for each binder: values may come before it.

Protein sequences, listed by entry. Tags and fused reporters are not part of them. Lines headed by an entry give the natural chain unless they say otherwise; changes in a name come on top.
UniProt P0A9A6: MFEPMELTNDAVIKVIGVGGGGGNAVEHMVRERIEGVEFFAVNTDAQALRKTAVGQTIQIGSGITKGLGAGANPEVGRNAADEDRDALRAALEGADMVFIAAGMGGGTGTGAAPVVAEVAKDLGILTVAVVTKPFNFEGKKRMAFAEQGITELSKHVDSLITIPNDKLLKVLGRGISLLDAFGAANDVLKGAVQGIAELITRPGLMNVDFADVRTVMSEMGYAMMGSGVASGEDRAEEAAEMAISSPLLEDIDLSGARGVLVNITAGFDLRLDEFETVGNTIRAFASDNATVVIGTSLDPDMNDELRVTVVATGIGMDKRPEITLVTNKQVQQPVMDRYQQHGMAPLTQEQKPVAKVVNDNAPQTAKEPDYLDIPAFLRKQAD

Molecular target: FtsZ-T25 fusion (bacterial two-hybrid) (Escherichia coli) (UniProt P0A9A6)
Assay: two-hybrid; bacterial two-hybrid in strain LYA1 (BTH101, ftsA^R286W); LB plates with antibiotics, 40 µg/mL X-gal and IPTG, 30°C, about 18 hours

binding: binds
B1: ZapA (bacterial two-hybrid fusion) (protein, UniProt P0ADS2 1-109)
chain: MSAQPVDIQIFGRSLRVNCPPDQRDALNQAADDLNQRLQDLKERTRVTNTEQLVFIAALNISYELAQEKAKTRDYAASMEQRIRMLQQTIEQALLEQGRITEKTNQNFE

binding: binds
B2: FtsA (bacterial two-hybrid fusion) (protein, UniProt P0ABH0 1-420)
chain: MIKATDRKLVVGLEIGTAKVAALVGEVLPDGMVNIIGVGSCPSRGMDKGGVNDLESVVKCVQRAIDQAELMADCQISSVYLALSGKHISCQNEIGMVPISEEEVTQEDVENVVHTAKSVRVRDEHRVLHVIPQEYAIDYQEGIKNPVGLSGVRMQAKVHLITCHNDMAKNIVKAVERCGLKVDQLIFAGLASSYSVLTEDERELGVCVVDIGGGTMDIAVYTGGALRHTKVIPYAGNVVTSDIAYAFGTPPSDAEAIKVRHGCALGSIVGKDESVEVPSVGGRPPRSLQRQTLAEVIEPRYTELLNLVNEEILQLQEKLRQQGVKHHLAAGIVLTGGAAQIEGLAACAQRVFHTQVRIGAPLNITGLTDYAQEPYYSTAVGLLHYGKESHLNGEAEVEKRVTASVGSWIKRLNSWLRKEF
